Data taken from PubChem BioAssay AID1159506, deposited by NCATS (2015).

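Genome-wide siRNA knockdown in TC32 Ewing sarcoma cells, comparing luciferase light from an NR0B1-promoter reporter with a CMV-promoter reporter 48 hours after transfection.
Each siRNA was applied at 20 nM.
A z-score of the log NR0B1-over-CMV signal, less the median of siRNAs with the same seed; more negative means a stronger specific loss of the NR0B1 reporter.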

The strongest results of the screen are mostly left out here.
Sequences are the guide (antisense) strand, without overhang.

| Sequence | target gene | seed-corrected z-score |
|---|---|---|
| `UACUGGUACUCAUGGACAC` | CCDC17 | -0.4948 |
| `AAUCAUAUGAAUAAAGUCC` | HNMT | 0.235 |
| `AUGGUCAUCAACUAGCUCG` | TSEN2 | -0.8658 |
| `UGAUUGUUAACGAUCAUUG` | NCEH1 | 0.03161 |
| `UCUGCAACAAACUUCUCGC` | RDH16 | 0.3013 |
| `UUUUGAAUUCCUUUGGAGG` | C1orf52 | 1.82 |
| `UAUAUUGGAAAAGUCGUAG` | SLC6A4 | 0.7466 |
| `UGAGUCUGAAAUGUUUUGU` | ZNF716 | -0.05866 |
| `UCCCAAAUGACAGUGUUGC` | CR1L | -0.07381 |
| `AUUGGUUUCUGUACCCACG` | PHB | 0.2625 |
| `UUCCAGCCCGAUUUAUAGC` | SMIM20 | 0.3183 |
| `AAACCAUACAUUGUGGACC` | HSPB2 | -0.4008 |
| `UGUCUGCAAAGAAGGCACG` | EXOC3L2 | 0.5789 |
| `AAAGUAGUAGUUCCUCACC` | VWA7 | 0.07498 |
| `UCUCGUCGUAUUUCUGCUG` | LRRC14B | -0.1022 |
| `UUCAUUAUCCAGUUCAGUG` | FBXL17 | 0.3186 |
| `UUAGAAUCUUUGUCAAUAC` | STXBP5L | 0.1868 |
| `UCCUUGUCUAAAACCAGGC` | AHNAK2 | -1.626 |
| `AAACUGUUGAGUCUACUCC` | GMPS | -0.7374 |
| `UGAUUUUACACAGCAGGCU` | GGN | 0.5202 |
| `UUGUCGAUGAAAUAGUCUC` | PRIMPOL | -0.9143 |
| `UUCCGGAGAAUUCUUUACC` | FUS | -0.7128 |
| `UUAAGGUCAAUUUGUCCAC` | OAT | -0.1489 |
| `UUCCGUAUCUGUUGGACAC` | DSCAM | 0.5634 |
| `AUAGUGGAAAGUUCGAGCG` | HCN1 | 0.9167 |
| `UGUUUCGCAAGUUUUCUGG` | RFX4 | 0.06945 |
| `UCUUGUAGAACUCAGCUGC` | RAG1 | 0.5904 |
| `UCACCUGUAGACACUCGGC` | KIAA0930 | 0.1923 |
| `AACUCUUGCCUCUCAGUCC` | HLA-A | -0.1417 |
| `UUACGUCCACCCAUCCUUC` | NALCN | -0.319 |
| `UCCCAUGUUAUGAAAUUCC` | YTHDC1 | 1.631 |
| `UUGCUGUAAACUGCUCUGA` | TUBB7P | 1.012 |
| `UCCCUGUGCAGAUUACUUC` | LRRC52 | -0.681 |
| `AUUAGUACAAAUACCAUCC` | SGPP1 | 0.1812 |
| `AAUCCUUAAAUCGUCCUGG` | DCUN1D1 | -1.157 |
| `UCUCGUACAAGUAAAUGAC` | CLDN11 | -1.174 |
| `UGUUUGAACACCUCCAUGG` | MAP3K7CL | -0.0151 |
| `UCUGUAGCCUCUGGAAUCC` | EBF4 | 0.886 |
| `UCUAUUUCAUCCUUAGAUC` | RAD54L | -0.2759 |
| `UGUAGUAAAAACCUGAUUG` | NOL10 | 1.728 |
| `UAUUCACUAACUGUCCAGG` | PAG1 | -1.129 |
| `UUCGCUUACAGAUACUAGG` | PLA2R1 | -0.5078 |
| `UGGUCUUCAAGGUCAAGGC` | MCF2L2 | -0.6347 |
| `UAUGGUAAAAACCCUCUUG` | SEC11C | 0.02965 |
| `UGCAGGUCCAUGGAGAUGG` | AP1B1 | 0.7465 |
| `AUAGUUGUAGAGACGCAGG` | AURKB | -0.1812 |
| `UCAUGCUCCACCAUAUACG` | WNK2 | -0.1443 |
| `UUCCCUAUCAAUAGAGUCC` | PLA2G7 | 0.3275 |
| `UCUGUACAGGAGGAAGUUC` | B3GNT3 | -0.5151 |
| `AAUGGAUUGAGACACGAUC` | TINAGL1 | 0.1246 |
| `UCAGGGUGAAACCACAAGC` | NME1 | -1.237 |
| `UAUUCUGAAGCAGUGAUUU` | MS4A5 | 0.5745 |
| `UCACUAAUGACAAAGGAAG` | MTFR1L | 1.103 |
| `ACAGUCACCUGUUUGGUCU` | GPHB5 | 0.0006237 |
| `AUUAGUCCUAGGAUGCUGC` | SLC35G5 | 0.05174 |
| `UUGAGUAUGCUGGGCACCG` | NR0B2 | 0.1889 |
| `UUUCCUCCCAUAAAUAUAG` | GOLT1A | -0.06688 |
| `UUUUAUCGUAGUCAAAAUG` | PIGU | 0.3333 |
| `AAAGGUACGAGGAUAACGC` | STC2 | -0.0207 |
| `UUUCUUAGCAGAUAUCCUG` | FARP2 | -0.8906 |
| `UGUGAUUUAAAGGCUGUUC` | PMEPA1 | -0.2687 |
| `UUGGUAGUAAGGAUGAGAC` | BPGM | 0.9576 |

Once more, the final 6:

Sequence,target gene,seed-corrected z-score
UUUCCUCCCAUAAAUAUAG,GOLT1A,-0.06688
UUUUAUCGUAGUCAAAAUG,PIGU,0.3333
AAAGGUACGAGGAUAACGC,STC2,-0.0207
UUUCUUAGCAGAUAUCCUG,FARP2,-0.8906
UGUGAUUUAAAGGCUGUUC,PMEPA1,-0.2687
UUGGUAGUAAGGAUGAGAC,BPGM,0.9576